Assay results as given in the supplement of paper PMC4840960.
± gives the standard deviation of the averaged measurements. Some of the results follow. Part of the spread comes from offsets between plates or batches.

Test system: E18 rat cortical neuron-glia co-culture
Experiment: total nuclei (DAPI) / Olig2+ nuclei (ratio); higher = more depletion of OPC/OL lineage cells
Settings: 1 µM; treatment time: 8 days (DIV5-DIV13)

Row | SMILES | total nuclei
1 | CO[C@H]1/C=C/O[C@@]2(C)Oc3c(C)c(O)c4c(c3C2=O)C2=NC3(CCN(CC(C)C)CC3)NC2=C(NC(=O)/C(C)=C\C=C\[C@H](C)[C@H](O)[C@@H](C)[C@@H](O)[C@@H](C)[C@H](OC(C)=O)[C@@H]1C)C4=O [Rifabutin] | 3.98 ± 1.4
2 | CC1Cc2ccccc2N1NC(=O)c1ccc(Cl)c(S(N)(=O)=O)c1 (configuration not stated) [Indapamide] | 2.62
3 | COc1cc(OC)c(C(=O)CCCN2CCCC2)c(OC)c1 [Buflomedil] | 3.6
4 | C[C@H](CS)C(=O)N1CCC[C@H]1C(=O)O [Captopril] | 2.77
5 | CCC(C)(C)C(=O)O[C@H]1C[C@@H](C)C=C2C=C[C@H](C)[C@H](CC[C@@H]3C[C@@H](O)CC(=O)O3)[C@H]21 [Simvastatin] | 14.5
6 | CN(C)[C@@H]1C(O)=C(C(=O)NCN2CCCC2)C(=O)[C@@]2(O)C(O)=C3C(=O)c4c(O)cccc4[C@@](C)(O)[C@H]3C[C@@H]12 [Rolitetracycline] | 2.66
7 | CC(=O)OCC(CCn1cnc2cnc(N)nc21)COC(C)=O [Famciclovir] | 3.48
8 | CC(C)c1ccc2oc3nc(N)c(C(=O)O)cc3c(=O)c2c1 [Amlexanox] | 2.92
9 | OC(CCN1CCCCC1)(c1ccccc1)C1CCCCC1 (configuration not stated) [Trihexyphenidyl] | 3.68
10 | Clc1ccccc1C(c1ccccc1)(c1ccccc1)n1ccnc1 [Clotrimazole] | 3.62
11 | CN(C)CCc1c[nH]c2ccc(Cn3cncn3)cc12 [Rizatriptan] | 2.77
12 | C=C1/C(=C\C=C2/CCC[C@]3(C)[C@@H]([C@H](C)/C=C/[C@@H](O)C4CC4)CC[C@@H]23)C[C@@H](O)C[C@@H]1O [Calcipotriene] | 4
